Screening data, single-dose tests

Source: ChEMBL document CHEMBL3988442, “University of Dundee, Small-Polar-MMV Screening Library” (2021).

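Growth of Mycobacterium tuberculosis over 3 days (7H9 medium with glucose and tyloxapol); the read-out is not stated. Compounds at 500 µM. Direction is inferred from retests: higher values go with more growth inhibition. About 18,000 compounds were tested under these conditions; 7.9% (about 1,400) showed 50% or more at least once.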

Values are the deposited “Percent Effect”, in %.
The controls that fix the scale are not given in the record; negative values are as filed.
The compounds are a random part of those screened.

For CC(C(N)=O)N(C)CCCOc1ccccc1 (configuration not stated) the result was -6.854%.
For C=C(Br)CNC(=O)Cc1c(F)cccc1F the result was 13.01%.
For CN1CCOC(CNC(=O)c2ccc(N)nc2)C1 (configuration not stated) the result was 1.643%.
For CNCC(=O)N1CCC(Oc2ccc(C)cc2)CC1 the result was 43.67%.
For CN(CC(=O)N1CCCC1)C(=O)C1CCC1 the result was 17.2%.
For C=C(C)CCOC(=O)c1cc(C(N)=O)cs1 the result was 64.29%.
For Cc1nn(-c2ccc(F)cc2)cc1CN the result was -7.351%.
For O=C(N[C@@H]1CCNC[C@H]1O)c1ccc2ncccc2c1 the result was 9.986%.
For O=C(NCCC1=CSC2=NCCCN12)c1cnn[nH]1 the result was 14.16%.
For CCNc1ncc(C(=O)N2CCCc3sccc3C2)s1 the result was -2.619%.
For O=S1(=O)CCC(Oc2ccc(Br)cc2)C1 (configuration not stated) the result was 9.809%.
For Cc1ncccc1NC(=O)c1cccc(S(C)(=O)=O)c1 the result was 23.14%.
For CCC(=O)Nc1cc(C(N)=O)ccc1Cl the result was -7.022%.
For CCc1nnc(NC(=O)c2ccnc(N(C)C)c2)s1 the result was 13.97%.
For Cc1noc(C(C)N2CCN(C(C)C)CC2)n1 (configuration not stated) the result was 1.301%.
For CC(=O)N1CCCn2nc(-c3cccc(F)c3)cc2C1 the result was 29.4%.
For O=C(c1cccnc1)N1CCCC1c1ccc(O)cc1 (configuration not stated) the result was 11.67%.
For CC(C)[C@@H](CO)NCc1ncn(-c2ccccc2)n1 the result was 5.321%.
For O=C(C1CC=CC1)N(CCCO)Cc1ccccn1 the result was 10.7%.
For Cc1nc(-c2cccnc2)sc1C(=O)N1CCCC1 the result was 11.61%.
For CNc1nnc(-c2ccccc2)s1 the result was 60.59%.
For COC(=O)CC1NCCNC1=O (configuration not stated) the result was -1.233%.
For COc1ccc(Cl)cc1NCC(=O)N1CCSCC1 the result was -0.4232%.
For O=C(c1ccc[nH]1)N1CCC(Nc2cccnc2)CC1 the result was 24.82%.
For COc1cccc(CN(C)CC2CCS(=O)(=O)C2)c1 (configuration not stated) the result was 6.107%.
For Cc1cc(C)n2c(SCCC(N)=O)nnc2n1 the result was -6.32%.
For CC(C)c1cc(C(=O)N2CCSCC2)nc2ncnn12 the result was -11.31%.
For CCN(CCN(C)C)C(=O)c1cn(CCN)nn1 the result was -2.285%.
For CN(C)c1ccc(CN2CC[C@](C)(O)C(C)(C)C2)cn1 the result was 5.45%.
For COC(=O)c1ccc2oc(=O)[nH]c2c1 the result was 18.81%.
For COc1ccc(CC(N)=O)cc1OC the result was -2.151%.
For Cc1c[nH]c(CN2CCN3CCCC3C2)c(C)c1=O (configuration not stated) the result was -3.975%.
For CCOc1ccccc1OC1CCN(CC(N)=O)CC1 the result was -7.174%.
For CS(=O)(=O)CC(=O)Nc1cccc(Cl)c1Cl the result was 2.587%.
For CC1CN(C(=O)CCCNC(=O)c2ccco2)CCO1 (configuration not stated) the result was 6.741%.
For COC(=O)c1ccc(C(=O)NC2CC2)nc1 the result was 7.666%.
For OCC1(CC2CC2)CCCN(CCCn2cccn2)C1 (configuration not stated) the result was -7.532%.
For COCc1nc(CN2C(=O)CCc3ccccc32)no1 the result was -4.854%.
For CCN1CCN(Cc2nc(C3CC3)no2)CC1 the result was 7.867%.
For CCC(CC)(CO)NCCn1cc(Br)cn1 the result was -1.142%.
For COC1Cc2ccccc2N(C(=O)c2cnn(C)c2)C1 (configuration not stated) the result was 43.11%.
For CCOCC(O)CSc1nccn1-c1cccc(F)c1 (configuration not stated) the result was 66.17%.
For CS(=O)(=O)c1nccn1CCN1CCCCC1 the result was -17.25%.

3 of the entries, repeated:

{"smiles": "CC(C)c1cc(C(=O)N2CCSCC2)nc2ncnn12", "Percent Effect": -11.31}
{"smiles": "Cc1nc(-c2cccnc2)sc1C(=O)N1CCCC1", "Percent Effect": 11.61}
{"smiles": "CS(=O)(=O)CC(=O)Nc1cccc(Cl)c1Cl", "Percent Effect": 2.587}